PubChem BioAssay AID504834 (National Center for Advancing Translational Sciences (NCATS), 2011)
The whole screen tested about 320,000 compounds, of which about 22,000 (6.9%) were called active. Inconclusive means that the source gave no clear call. Such entries were picked first, then a sample of the others. Calls come from the whole dose curve; as a rule, active = well fitted inhibition curve with a large enough effect; inconclusive = small, poorly fitted or top-dose-only effect, or another doubt; inactive = no such curve, though single readings can be large or run the other way. Potencies beside an inconclusive call are fits to weak or partial responses and may not hold up.

Test: Primary qHTS for delayed death inhibitors of the malarial parasite plastid, 96 hour incubation
Conditions: P. falciparum luciferase reporter growth; series mostly up to 28.7 µM
Procedure, shortened: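 Two parasite generations (96 h, 37 C, 5% CO2) of compound exposure in infected erythrocytes (0.05% parasitemia, 2% hematocrit). Luciferase-reporter P. falciparum; decreased luminescence indicates inhibited growth, aimed at apicoplast-acting delayed death.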
Potency is the fitted concentration of half-maximal effect.

Row | SMILES | Potency
1 | COc1cc(Br)c(CCNC(=O)c2ccco2)cc1OC | inconclusive: 8.28 µM [inhibitor, partial curve, poor fit]
2 | CCOc1ccc(Nc2ccc(N3C(=O)CCC3=O)cc2[N+](=O)[O-])cc1 | inconclusive: 2.94 µM [inhibitor, partial curve, poor fit]
3 | O=C1c2cccc3c(N4CCCCC4)ccc(c23)C(=O)N1c1ccc(O)cc1 | inactive
4 | COc1ccc(C(CC(=O)Nc2cc(OC)cc(OC)c2)n2cccc2)cc1 (stereo not given) | inconclusive: 2.62 µM [inhibitor, partial curve, poor fit]
5 | COc1ccc(N=C2SCC(=O)N2c2ccc(OC)cc2)cc1 | inconclusive: 1.47 µM [inhibitor, full curve]
6 | O=C(COC(=O)c1cc(-c2cccc3ccccc23)nc2ccccc12)NC1CCS(=O)(=O)C1 (stereo not given) | inconclusive: 0.0208 µM [inhibitor, full curve, poor fit]
7 | O=C(Nc1ccc2nc(-c3ccc4nc[nH]c4c3)[nH]c2c1)c1cccs1 | inconclusive: 13.1 µM [inhibitor, partial curve]
8 | Cc1ccnc(N2CCC(C(=O)NCc3ccccc3F)CC2)n1 | inconclusive: 13.1 µM [inhibitor, single point]
9 | CN(C)c1ccc(/C=C/c2ccc3ccccc3[n+]2C)cc1 | inconclusive: 0.586 µM [inhibitor, full curve, poor fit]
10 | COc1cc([N+](=O)[O-])ccc1NC(=O)C[n+]1cccc(C)c1 | inconclusive: 0.586 µM [inhibitor, full curve]
11 | Cc1cccc(C(=O)N=c2c(C#N)cc3c(=O)n4cccc(C)c4nc3n2Cc2ccco2)c1 | active: 13.1 µM
12 | COc1ccccc1N(CC(=O)N/N=C/c1ccccc1C(=O)O)S(C)(=O)=O | inactive
13 | C=CCc1ccc(OCCCCNC(C)CC)c(OC)c1 (stereo not given) | inactive
14 | CCCNC(=O)N1[C@H]2CC[C@@H]1C(C(=O)OC)=C(c1ccc(OC)c(OC)c1)C2 | inactive
15 | COc1ccc(-c2nn(-c3ccccc3)cc2CN(C)CCn2ccnc2C)c(F)c1 | inactive
16 | CC(/C=C/c1ccccc1)=N/NC(=O)c1cccc(Br)c1 | inconclusive: 1.65 µM [inhibitor, full curve]
17 | Cc1ccccc1C(=O)N1CCC(C(=O)Nc2ccc3c(c2)OCCO3)CC1 | inconclusive: 7.38 µM [inhibitor, partial curve, poor fit]
18 | COc1ccc(NC(=S)NCc2ccc3c(c2)cc(C)n3C)cc1 | inconclusive: 5.22 µM [inhibitor, partial curve, poor fit]
19 | CC1CC(C(F)(F)F)n2ncc(C(=O)O)c2N1 (stereo not given) | inconclusive: 1.04 µM [inhibitor, partial curve]
20 | CC(=O)Nc1ccc(S(=O)(=O)c2cc(O)ccc2O)cc1 | inconclusive: 13.1 µM [inhibitor, single point]
21 | CC1CCCCN1C(=O)c1ccc(Br)o1 (stereo not given) | inconclusive: 16.5 µM [inhibitor, single point]
22 | Cc1c(Cl)cccc1NC(=S)NN1CCOCC1 | inactive
23 | COc1ccc(/C=N/NC(=O)c2cc(-c3cccn3C)n[nH]2)cc1OC | active: 1.85 µM
24 | O=C(CN(C(=O)CCC(=O)Nc1nccs1)c1ccc(F)cc1)NCc1ccccc1 | inactive

Row | SMILES | Potency
25 | CC(C)CN(C(=O)CN1CC=C(c2ccccc2)CC1)c1c(N)n(CC(C)C)c(=O)[nH]c1=O | inconclusive: 1.65 µM [inhibitor, full curve, poor fit]
26 | COc1ccc(C(=O)C(OC(=O)c2ccccc2)c2ccccc2)cc1 (stereo not given) | inactive
27 | Cn1c(C(=O)O)c(CC(=O)Nc2ccc3c(c2)OCCO3)c2ccccc21 | inactive
28 | C1OCOCO1 | inactive
29 | CC(=O)NC1=C(Nc2ccc(N(C)C)cc2)C(=O)c2ccccc2C1=O | inconclusive: 1.31 µM [inhibitor, full curve, poor fit]
30 | COc1ccc(NCC(O)COc2ccc(C(C)(C)C)cc2)cc1 (stereo not given) | inconclusive: 2.33 µM [inhibitor, single point]
31 | CC(C)(C)N1C(=O)[C@H]2[C@@H](c3ccc(Br)cc3)N3C(=O)N(c4cccc(Cl)c4)C(=O)[C@@]3(C)[C@H]2C1=O | inconclusive: 18.5 µM [inhibitor, single point]
32 | Cc1cc(C)cc(NC(=S)NC2CC3CCCC(C2)N3Cc2cccs2)c1 (stereo not given) | active: 2.33 µM
33 | CCOC(=O)c1c(C)[nH]c(C)c1S(=O)(=O)N1CCC(c2ccccc2)C1 (stereo not given) | inconclusive: 18.5 µM [inhibitor, single point]
34 | CC(C)n1cnc2cc(NCc3ccccc3O)ccc21 | inactive
35 | CCN(C(=S)Nc1cccnc1)c1cccc2ccccc12 | inconclusive: 18.5 µM [inhibitor, single point]
36 | Cc1ccc(OCCn2c(Br)nc3c2c(=O)n(C)c(=O)n3C)cc1 | inactive
37 | COC(=O)c1cc(S(=O)(=O)NCC2CCN(Cc3ccc(F)cc3)CC2)cn1C | inconclusive: 4.65 µM [inhibitor, partial curve, poor fit]
38 | COc1ccc(C(=O)Nc2ccccc2C(=O)N2CCOCC2)cc1Br | inconclusive: 10.4 µM [inhibitor, single point]
39 | Cc1nn(C)cc1S(=O)(=O)N1CCN(c2cccc(Cl)c2)CC1 | inconclusive: 11.7 µM [inhibitor, single point]
40 | COc1ccc(Cl)cc1NC(=O)CN(C)C(=O)C1CCN(C(=O)Nc2ccccc2)CC1 | inconclusive: 9.28 µM [inhibitor, partial curve]
41 | N#Cc1c(SCc2cccc(Cl)c2)sc(C(=O)c2ccccc2)c1N | inconclusive: 10.4 µM [inhibitor, single point]
42 | CCOc1ccc2c(c1)-c1c(ssc1=S)C(C)(C)N2C(=O)CSC1=NCCS1 | active: 1.65 µM
43 | CC(C)[C@H](NS(=O)(=O)c1ccccc1)C(=O)OCC(=O)N1N=C(c2ccc(Cl)cc2)CC1c1ccco1 (stereo not given in full) | inconclusive: 18.5 µM [inhibitor, single point]
44 | Fc1ccc(NC(=S)N2CCn3cccc3C2c2cccnc2)cc1 (stereo not given) | inactive
45 | N#C/C(=C\c1cn(-c2ccccc2)nc1-c1cc2ccccc2o1)c1nc2ccccc2[nH]1 | active: 0.657 µM
46 | Cc1cccn2c(=O)c3cc(C(=O)NCC4CCCO4)c(=N)n(CCc4ccccc4)c3nc12 (stereo not given) | inconclusive: 2.08 µM [inhibitor, full curve]
47 | CCOC1Cc2ccccc2N(C(N)=O)c2ccccc21 (stereo not given) | inactive
48 | COc1ccc(C)cc1NC(=O)Nc1cccc(C(=O)O)c1 | inconclusive: 5.86 µM [inhibitor, partial curve]

Row | SMILES | Potency
49 | Cc1ccc(NC(=O)CN(C)C(=O)CSc2nnc(NC(C)C)s2)cc1 | inactive
50 | Cc1cc(C)nc(SCc2nnc(SCC(=O)Nc3nc(-c4ccccc4)cs3)n2C)n1 | inactive
51 | O=C(c1ccccc1F)N1CCN(c2ncccn2)CC1 | inactive
52 | CN1CCc2c([nH]c3ccccc23)C1 | inconclusive: 18.5 µM [inhibitor, single point]
53 | COc1ccc(C(=O)NCN2CCN(c3ccccc3)CC2)cc1OC | inconclusive: 18.5 µM [inhibitor, single point]
54 | Cc1ccc(OCC(=O)NCCC2=CCCCC2)cc1 | inconclusive: 1.47 µM [inhibitor, full curve, poor fit]
55 | Cc1c(C(=O)N2CCCCC2C)sc2ncnc(N3CCc4ccccc4C3)c12 (stereo not given) | inconclusive: 18.5 µM [inhibitor, single point]
56 | COc1ccc(/C=C/C(=O)c2ccc(NC(=O)c3cccs3)cc2)cc1OC | inactive
57 | Cc1noc(C)c1COc1ccccc1C(=O)N(C)CC(=O)Nc1ccc(Cl)c(Cl)c1 | inconclusive: 11.7 µM [inhibitor, single point]
58 | C=CCSc1nc2c(c(=O)[nH]c(=O)n2C)n1Cc1ccccc1 | inactive
59 | COc1ccccc1CN1CCCC(CN(CCN(C)C)C(=O)C2CCCC2)C1 (stereo not given) | inconclusive: 18.5 µM [inhibitor, partial curve, poor fit]
60 | CC1=C(C(=O)Nc2ccccc2C(=O)NCc2ccccc2)SCCO1 | inconclusive: 10.4 µM [inhibitor, single point]
61 | Cc1cc(C(=O)COC(=O)C23CC4CC(CC(O)(C4)C2)C3)c(C)n1-c1c(C)n(C)n(-c2ccccc2)c1=O | inactive
62 | COCCn1cnnc1SCC(=O)Nc1ccccc1C(=O)Nc1ccc2c(c1)OCO2 | inactive
63 | COC(=O)C1=C(c2ccc(Cl)c(C(F)(F)F)c2)C[C@@H]2CC[C@H]1N2C(=O)NCCCOC(C)C | inconclusive: 4.65 µM [inhibitor, partial curve]
64 | COCCn1c(-c2ccccc2F)n[nH]c1=S | inconclusive: 11.7 µM [inhibitor, partial curve, poor fit]
66 | Cc1cc(C)c(C#N)c(SCc2ccccc2)n1 | inactive
67 | COc1ccc(N2CCN(C(=O)COC(=O)c3ccc(C)o3)CC2)cc1 | inconclusive: 13.1 µM [inhibitor, partial curve, poor fit]
68 | Cc1cc(C)n2nc(SCCCC(=O)c3ccccc3)nc2n1 | inconclusive: 0.415 µM [inhibitor, full curve, poor fit]
69 | CC1(C)CC(=O)/C(=C\c2cccc([N+](=O)[O-])c2)C(C)(C)N1 | inconclusive: 10.4 µM [inhibitor, partial curve, poor fit]
70 | Cc1ccc(Nc2nnc(SCC(=O)N(C)C3CCS(=O)(=O)C3)s2)cc1 (stereo not given) | inconclusive: 11.7 µM [inhibitor, single point]

4 structures already listed, arranged by count of non-hydrogen atoms, smallest number first:
Row | SMILES | Potency
5 | COc1ccc(N=C2SCC(=O)N2c2ccc(OC)cc2)cc1 | inconclusive: 1.47 µM [inhibitor, full curve]
53 | COc1ccc(C(=O)NCN2CCN(c3ccccc3)CC2)cc1OC | inconclusive: 18.5 µM [inhibitor, single point]
32 | Cc1cc(C)cc(NC(=S)NC2CC3CCCC(C2)N3Cc2cccs2)c1 (stereo not given) | active: 2.33 µM
24 | O=C(CN(C(=O)CCC(=O)Nc1nccs1)c1ccc(F)cc1)NCc1ccccc1 | inactive
